# Data published in patent US20050277588A1 (AFFYMAX, published 2005).
# Results are given in words; binding and its absence hold for the method and conditions named. Some results given as binding are weak or reduced against the parent protein; the word gives no strength.
# T1: granulocyte-colony stimulating factor receptor (G-CSFR), purified / soluble receptor used in the binding assays (UniProt Q99062)
# T1 sequence (looked up): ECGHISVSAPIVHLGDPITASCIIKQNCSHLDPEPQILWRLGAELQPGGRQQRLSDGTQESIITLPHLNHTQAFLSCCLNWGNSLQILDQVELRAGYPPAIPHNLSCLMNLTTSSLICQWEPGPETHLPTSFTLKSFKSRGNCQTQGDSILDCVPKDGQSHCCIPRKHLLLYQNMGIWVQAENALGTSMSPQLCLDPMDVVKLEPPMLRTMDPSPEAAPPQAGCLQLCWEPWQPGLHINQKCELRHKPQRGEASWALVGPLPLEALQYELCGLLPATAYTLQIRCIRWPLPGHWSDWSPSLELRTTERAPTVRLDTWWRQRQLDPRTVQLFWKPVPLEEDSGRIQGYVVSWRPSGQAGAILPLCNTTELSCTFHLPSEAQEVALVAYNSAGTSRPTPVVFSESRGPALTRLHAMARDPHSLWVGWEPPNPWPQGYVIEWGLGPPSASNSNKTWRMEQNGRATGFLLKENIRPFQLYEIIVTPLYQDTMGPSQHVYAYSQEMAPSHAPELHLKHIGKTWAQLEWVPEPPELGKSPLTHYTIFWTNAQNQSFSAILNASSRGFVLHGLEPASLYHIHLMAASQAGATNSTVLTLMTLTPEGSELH
# Key:
# [1] = biological target: T1, granulocyte-colony stimulating factor receptor (G-CSFR), purified / soluble receptor used in the binding assays; experiment: competitive binding: competition with 125I-G-CSF on plate-immobilised G-CSFR
# [2] = biological target: T1, granulocyte-colony stimulating factor receptor (G-CSFR), purified / soluble receptor used in the binding assays; experiment: specific binding to G-CSFR (total minus non-specific binding with excess unlabeled ligand)
Binder,binding [1],binding [2]
CSFVQLNSIC [Example 5 peptide …],binds,binds
CVPWMFYDLC [Example 6 peptide …],,binds
CDPWMFYDLC [Example 7 peptide …],,binds
CPDWYQSYMC [Example 12 peptide …],binds,binds
CPHWTSYYMC [Example 13 peptide …],binds,binds
CACMLRVVHC [Example 14 peptide …],binds,binds
CAGEVMHMCC [Example 1 peptide …],binds,binds
SNESGWVWLP [Example 16 peptide …],,binds
EQSNSGWVWV [Example 17 peptide …],,binds
SRTESGWVWT [Example 18 peptide …],,binds
QRANSGWVWV [Example 19 peptide …],,binds
DYDNSGWVWH [Example 20 peptide …],,binds
ETWGERDWFC [Example 21 peptide …],binds,binds
YETAERSYFC [Example 23 peptide …],binds,binds
ADNAERGWFC [Example 24 peptide …],binds,binds
STSERAWFCG [Example 26 peptide …],binds,binds
ASWSERGWFC [Example 27 peptide …],binds,binds
ELSSEREWFC [Example 28 peptide …],binds,binds
CNREIEAMCC [Example 2 peptide …],binds,binds
DMQGERGWFC [Example 29 peptide …],binds,binds
DMVYAYPPWS [Example 30 peptide …],,binds
DEMVYTVPYW [Example 31 peptide …],binds,binds
HTTNEQFFMC [Example 32 peptide …],binds,binds
DTWLELESRY [Example 33 peptide …],,binds
DWQKTIPAYW [Example 34 peptide …],binds,binds
CADEVMHFCC [Example 3 peptide …],binds,binds
CDVWQLFDRC [Example 4 peptide …],binds,binds
